Most values lie at the floor of the assay. Slopes are relative: functional sequences can read slightly below zero.
The substances below were run on Saccharomyces cerevisiae PS128 hsf1 delta, HSF1(1-493) fusion (assay: growth estimate (transactivation domain function in HSF1 fusion, heat-shock survival) (a.u. (slope of normalised read count over time)); higher = stronger growth at 37°C, i.e. more transactivation activity). Conditions: library: random library.

Substance | growth estimate
TDYRKIGTVLRNTGN | < -0.25
TEAEGRPKLMRPTCPIRASR | < -0.25
TEAPWLSIRFTECDSGRR | < -0.25
TEARLGTVF | < -0.25
TEEGSLQCDGT | < -0.25
TEFAVSASPSDQIFGKVLLA | < -0.25
TEGAPRTTCLEDLVSTSTHL | < -0.25
TEIRETRRLAWTQLSAVIAR | < -0.25
TEKRRSLN | < -0.25
TELFDVRWEGYGTLIVRPCR | < -0.25
TELTRAKGYVQEGVHLP | -0.0851
TEN | < -0.25
TENR | < -0.25
TERVALFALACMSLDHHVLR | < -0.25
TESGENCLPREPSTLGALTF | < -0.25
TESHFSIMNICRKPNWYQEK | < -0.25
TESPPRNLVLGRHIVFRLRC | < -0.25
TESPRRSYASPEREVLSDSV | < -0.25
TETNICCDEGP | < -0.25
TETVRNTYGSPGIMGDSRLG | < -0.25
TFCVHHTGDNGIRREGCG | < -0.25
TFD | < -0.25
TFDIIGSCQCCTVGLMTFKT | < -0.25
TFDPQVPIRQRD | < -0.25
TFESVNPAFASTRVRRA | < -0.25

Substance | growth estimate
TFFGALACVWSIFADQYR | < -0.25
TFHGGVLQNLVRLVISQCPS | < -0.25
TFHYDLSSDVKSADAWWV | 0.661
TFKD | < -0.25
TFKVRKAGEDRYL | < -0.25
TFLLGGPHGASRLPPGLTCI | < -0.25
TFNSGKIAWIYVFSVSPRVR | < -0.25
TFPHMDARFWFNIPVVSVRP | < -0.25
TFQTA | < -0.25
TFRLRGPLWGSACKVHCRHM | < -0.25
TFSPDQPPWAELKTYLRSRT | < -0.25
TFVD | < -0.25
TFVGAQR | < -0.25
TFVTIYTFVFGSSGVAGNTG | < -0.25
TGANRTLNNIEHRSSDDRSS | < -0.25
TGATSKRAWCLNLRDARVHS | < -0.25
TGATTAQVRVDRQRGACRGA | -0.237
TGAWV | < -0.25
TGCPPETPHSLTSKLPQSYV | < -0.25
TGCVIGIITWSWATPEFDTV | < -0.253
TGDLRLEGCC | < -0.25
TGDNGTDI | < -0.25
TGE | < -0.25
TGEGAT | < -0.25
TGFGLVEAIWDVS | -0.172

5 entries drawn at random from those above, as already listed:
Substance | growth estimate
TFQTA | < -0.25
TFVTIYTFVFGSSGVAGNTG | < -0.25
TFHYDLSSDVKSADAWWV | 0.661
TGDLRLEGCC | < -0.25
TFVGAQR | < -0.25

Remaining list, next part:

Substance | growth estimate
TGFPVLIM | < -0.25
TGFVN | < -0.25
TGGGLKFVSIVGLKLEYFTH | < -0.25
TGGGNGNL | < -0.25
TGGHASGWQHESTETPIRDI | < -0.25
TGGQGRGVRHCRNQASRCRC | < -0.25
TGGSATGPAKPCRFWPLSQG | < -0.25
TGGVIYFALGEVLL | < -0.25
TGISNPGWWHATAVSLHTTF | < -0.25
TGLEGTRLTSSSIEIEC | < -0.25
TGLFGKFLAVTPQRF | < -0.25
TGLILKCWGPTERIL | < -0.25
TGLLQVWASSRSVRQPTRPE | < -0.25
TGLVFWPC | -0.247
TGMHTSRTIRHGSVAQWTLG | < -0.25
TGN | < -0.25
TGNGILRLHGATEGFWIRFA | < -0.25
TGNGLPRDFDPD | < -0.25
TGNQECTRA | < -0.25
TGNYGCWYFHCVAATISTRS | < -0.25
TGPPSREHCGKAAQPGDKWP | < -0.25
TGRCNNGGTEVRREKQQRPG | < -0.25
TGRGI | < -0.25
TGRNRGRAKKVTGPMAYAKS | < -0.25
TGRR | < -0.25

Part of the list above, tab-delimited.
Substance	growth estimate
TGNQECTRA	< -0.25
TGNYGCWYFHCVAATISTRS	< -0.25
TGPPSREHCGKAAQPGDKWP	< -0.25
TGRCNNGGTEVRREKQQRPG	< -0.25

Later entries.

Substance | growth estimate
TGS | < -0.25
TGSAPSEAGWGLTWFLKSSW | < -0.25
TGSCGS | < -0.25
TGSGCVLIQMVE | < -0.25
TGSKQRQTTGTEVCRYNRRQ | < -0.25
TGSSRRGPLDCSSIPPHPAG | < -0.25
TGSSWTNISFRRAQIPQATT | < -0.25
TGSYFLSGSKGDEHIMARVQ | -0.241
TGTDMVGLSHRHSTESQVGQ | < -0.25
TGTVRPG | < -0.25
TGVD | < -0.25
TGVVWGQLTGTMLEPS | < -0.25
TGVYLQLVSGDLVAGSLDGS | < -0.25
TGWDGVGIGCLSAEPEWLKL | 93.7
TGYGKGSLDGP | < -0.25
TGYLLVHPSGY | < -0.25
TGYQGYCGTHAHKHLNAWFP | < -0.25
TGYRLLGSL | < -0.25
TGYSNPLQLIRWKGVR | < -0.25
THDKGDSARSALDGAIDTGS | < -0.25
THESGPSYFASPTALFILGP | < -0.25
THGDLTMRQ | < -0.25
THGHGV | < -0.25
THLGSSHGGSRNRSSKLSSV | < -0.25
THLKAYSGNSKNGLNVDRGQ | -0.246

Substance | growth estimate
THLV | < -0.25
THPFGCLWGS | < -0.25
THRWSEARLVSDSNVRLARL | < -0.25
THSS | < -0.25
THSTFARKPAQVR | < -0.25
THVYGGTRR | < -0.25
TIADKVGESAASTGSTADRH | < -0.25
TIEARFQLFCSREDRKRVFP | < -0.25
TIEFVASRGSRTKYEVMRPA | < -0.25
TIESTGAHRSGGSRLLLLFT | < -0.25
TIEVGQCNREADSLCARHST | < -0.25
TIGHVPNLPAQEHLG | < -0.25
TILDISTPPHRGLKVQVSPP | < -0.25
TILGVKALFVSRR | < -0.25
TILTREEGDLKF | < -0.25
TIMWRYIMHTM | < -0.25
TINRRGVLNLPCGMSVRTNS | < -0.25
TINVPLA | < -0.25
TIQGVIVG | < -0.25
TIRCVGSTSELRLSQRDAFI | < -0.25
TIRGPDAGPSNVSPSFSRTL | < -0.25
TISASDARRAIE | < -0.25
TISPICRRASSSRCEQFLPL | < -0.25
TISTGGIQVPRFPLYARAAR | < -0.25
TITKPVRLMYRTGSDVHI | < -0.25

Substance | growth estimate
TIVPYADSEIGLSCAA | < -0.25
TIVPYAFARLPRPHVRLGEF | < -0.25
TIVWVDFLGSL | < -0.25
TIWSLPSCKYSRLIQGAEIE | < -0.25
TIYNHGGTH | < -0.25
TKADTSSYILQSQRSHDVRQ | < -0.25
TKAGAPGRPQSGGFPSRSWL | < -0.25
TKCTGVTNKTATMSLRMMAT | < -0.25
TKCYRPSSSCSV | < -0.25
TKDILSPRPLLYLIKLILRC | < -0.25
TKDLI | < -0.25
TKDRLAYRE | < -0.25
TKFGLVAASFYTIRAFGLMA | < -0.25
TKFI | < -0.25
TKFLCFGSTKRYTYSTTIKA | -0.241
TKIAAHVFPDMFRGVGDARL | < -0.25
TKILA | < -0.25
TKISG | < -0.25
TKKK | < -0.25
TKNVHCRV | < -0.25
TKPRRWVAVQTSLLHVKCGR | < -0.25
TKPSPIKPGQGYRQWEVYTS | < -0.25
TKPWDILMIPAN | < -0.25
TKRLVGLHRRVSLGFSPRFS | < -0.25
TKS | < -0.25

Substance | growth estimate
TKVMIAGSKNVIHPREACSA | < -0.25
TKVPGRDSTPL | < -0.25
TKWLNCSSGLANMSIMAEGR | < -0.25
TKYK | < -0.25
TLAGSICPSMLVWR | < -0.25
TLAVGNRRGGLCMTILRS | < -0.25
TLDSSAEALGPRQSAVVSHQ | < -0.25
TLEAD | < -0.25
TLECGA | < -0.25
TLEKSLNGLQR | < -0.25
TLFQLVRIQWGGRTRGEANN | -0.243
TLGAIRLSTTPNLFSYYRQG | < -0.25
TLGHRSPAATNR | < -0.25
TLGQGLIPKIIPDGLSRART | -0.238
TLGWDMLGRGSIIVPKFRNP | < -0.25
TLGYRVGVFLWQNTL | < -0.25
TLI | < -0.25
TLKE | < -0.25
TLKLPMLRLRHSLLSGLHPV | < -0.25
TLKQPIRDN | < -0.25
TLKYPNSTRQSFEVLSSRLR | < -0.25
TLLFSYPGSILPGCACQLVG | < -0.25
TLLHRKGRYSLPLGMGLRGL | < -0.25
TLLRMYTCEFFAAATRG | < -0.25
TLLTAPEGCRCNCRRAPLCP | < -0.25

Six neighbouring records already listed:
Substance | growth estimate
TGVVWGQLTGTMLEPS | < -0.25
TGVYLQLVSGDLVAGSLDGS | < -0.25
TGWDGVGIGCLSAEPEWLKL | 93.7
TGYGKGSLDGP | < -0.25
TGYLLVHPSGY | < -0.25
TGYQGYCGTHAHKHLNAWFP | < -0.25

Continued:

Substance | growth estimate
TLNKEHVAPHSLLRDNSGSG | < -0.25
TLPA | < -0.25
TLPDYRGQR | < -0.25
TLPLATTKISTVTHPDRINA | < -0.25
TLQGLQAAERWGVLES | < -0.25
TLQHTEEGDVAVNVEHLAGY | < -0.25
TLQRHLRLTSVLSGVSVNFR | < -0.25
TLR | < -0.25
TLRIWRLLGLSATWRRTTKG | < -0.25
TLRSE | < -0.25
TLSANTTRMPHTQFINTAKP | < -0.25
TLSGEGSPNVSAHGAVRQCG | < -0.25
TLSKGLKIYLT | < -0.25
TLSMRYSPTTEHSGRLHRGK | < -0.25
TLSP | < -0.253
TLSRRCPVIL | < -0.25
TLSRVCLTGLE | < -0.25
TLSRVGIGSSSMGQGRVGGL | < -0.25
TLSSYTA | < -0.25
TLSVACRTWKGT | < -0.25
TLVNLTHLVHVRIHLPLQLF | < -0.25
TLVRHSIVIPGYSTADSDGR | < -0.25
TLY | < -0.25
TLYAQE | < -0.25

Source: the supplement of paper PMC5949888
